Laboratory results reported in PubChem BioAssay AID256 (DTP/NCI, 2004).
The list does not hold the whole screen: it is rich in T/C values a quarter to a half above the control, in often repeated tests (any T/C) and in doses without a T/C. Further doses and runs are listed elsewhere. T/C is the treated group as % of the vehicle group. Some doses have a count of surviving animals in place of a T/C: the source holds a T/C of zero for them, seemingly a mark for toxic or unscored doses. Some doses without a T/C left all or most animals alive at the check, yet need not have been tolerated: survival well below the control is almost never listed, so the zero probably covers shortened survival too. Counts of survivors are from the toxicity check (mostly the fifth day) where no day follows; animals may have died later. Schedule codes are those of the source, taken here to give the interval after Q, in days (D) or hours (H), and the number of doses after X. Some doses were run more than once; their values stand side by side, smallest first. For survival time, this PubChem deposit counts one and a half times the control or more as active, and values a quarter to a half above the control carry no call in these data; other NCI protocols may use other cut-offs. Some T/C values carry the count of animals alive at the toxicity check (mostly the fifth day); without a count, all were alive then.

Test system: CD2F1 mice, L1210 leukemia ip, survival T/C
Assay: NCI In Vivo Anticancer Drug Screen. Data for tumor model L1210 Leukemia (intraperitoneal) in CD2F1 (CDF1) mice
Details: higher T/C = longer survival
Procedure, shortened: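 In this screen, transplantable tumors were grown in mice given either the compound or its vehicle. Results were expressed as the treated measurement relative to the control measurement.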

[1] = T/C endpoint: mean survival time, dose: 200.0 mg/kg/injection, schedule: Q01DX001 (ip), vehicle: saline
[2] = T/C endpoint: mean survival time, dose: 300.0 mg/kg/injection, schedule: Q01DX001 (ip), vehicle: other
[3] = T/C endpoint: mean survival time, dose: 400.0 mg/kg/injection, schedule: Q01DX001 (ip), vehicle: saline with Tween-80
[4] = T/C endpoint: mean survival time, dose: 50.0 mg/kg/injection, schedule: Q01DX009 (ip), vehicle: saline with Tween-80
[5] = T/C endpoint: mean survival time, dose: 100.0 mg/kg/injection, schedule: Q01DX009 (ip), vehicle: saline with Tween-80
[6] = T/C endpoint: mean survival time, dose: 200.0 mg/kg/injection, schedule: Q04DX003 (ip), vehicle: saline with Tween-80
[7] = T/C endpoint: mean survival time, dose: 200.0 mg/kg/injection, schedule: Q04DX002 (ip), vehicle: saline with Tween-80
[8] = T/C endpoint: median survival time, dose: 100.0 mg/kg/injection, schedule: Q01DX009 (ip), vehicle: saline
[9] = T/C endpoint: mean survival time, dose: 50.0 mg/kg/injection, schedule: Q04DX002 (ip), vehicle: saline with Tween-80
[10] = T/C endpoint: mean survival time, dose: 100.0 mg/kg/injection, schedule: Q04DX002 (ip), vehicle: saline with Tween-80
[11] = T/C endpoint: mean survival time, dose: 200.0 mg/kg/injection, schedule: Q01DX001 (ip), vehicle: saline with Tween-80
[12] = T/C endpoint: mean survival time, dose: 50.0 mg/kg/injection, schedule: Q01DX009 (ip), vehicle: Klucel (hydroxypropylcellulose) (HPC)
[13] = T/C endpoint: mean survival time, dose: 200.0 mg/kg/injection, schedule: Q01DX009 (ip), vehicle: Klucel (hydroxypropylcellulose) (HPC)
[14] = T/C endpoint: mean survival time, dose: 400.0 mg/kg/injection, schedule: Q04DX003 (ip), vehicle: saline with Tween-80

SMILES: Cc1nc(N)nc2ccccc12
- survivor count [1]: 0 of 4
- survivor count (T/C endpoint: mean survival time, dose: 400.0 mg/kg/injection, schedule: Q01DX001 (ip), vehicle: saline): 0 of 4

SMILES: CC(=O)Nc1cc(CN2CCCCC2)c(O)c2ncccc12
- survivor count [2]: 3 of 6

SMILES: O=C1CCC2(CCCCC2)N1
- survivor count (T/C endpoint: mean survival time, dose: 5.0 mg/kg/injection, schedule: Q01DX009 (ip), vehicle: saline): 6 of 6
- survivor count (T/C endpoint: mean survival time, dose: 10.0 mg/kg/injection, schedule: Q01DX009 (ip), vehicle: saline): 6 of 6
- survivor count (T/C endpoint: mean survival time, dose: 20.0 mg/kg/injection, schedule: Q01DX009 (ip), vehicle: saline): 1 of 6
- survivor count (T/C endpoint: mean survival time, dose: 25.0 mg/kg/injection, schedule: Q01DX009 (ip), vehicle: saline): 0 of 6
- survivor count (T/C endpoint: mean survival time, dose: 50.0 mg/kg/injection, schedule: Q01DX009 (ip), vehicle: saline): 0 of 6

SMILES: CCOC(=O)C(C)CN(CC(C)C(=O)OCC)C(C)(C)C (centres undefined)
- survivor count [3]: 2 of 6

SMILES: O=C(O)CS(=O)(=O)c1ccccc1
- survivor count (T/C endpoint: mean survival time, dose: 200.0 mg/kg/injection, schedule: Q01DX009 (ip), vehicle: saline): 6 of 6

SMILES: CCSc1ncnc2c1ncn2C1OC(CO)C(O)C1O (centres undefined)
- T/C [4]: 142 % of control
- T/C [5]: 147 % of control
- T/C (T/C endpoint: mean survival time, dose: 100.0 mg/kg/injection, schedule: Q04DX003 (ip), vehicle: saline sonified): 130 % of control
- T/C (T/C endpoint: mean survival time, dose: 200.0 mg/kg/injection, schedule: Q04DX003 (ip), vehicle: saline sonified): 130 % of control
- T/C [6]: 140 % of control
- T/C (T/C endpoint: mean survival time, dose: 300.0 mg/kg/injection, schedule: Q04DX003 (ip), vehicle: saline with Tween-80): 129 % of control [5 of 6 alive]
- survivor count (T/C endpoint: mean survival time, dose: 400.0 mg/kg/injection, schedule: Q04DX003 (ip), vehicle: saline sonified): 3 of 6

SMILES: CCN(CC)CCCC(C)NC(c1ccc2c(c1)Sc1ccccc1O2)[P+](=O)O (centres undefined)
- survivor count (T/C endpoint: mean survival time, dose: 400.0 mg/kg/injection, schedule: Q01DX001 (ip), vehicle: saline sonified): 0 of 6

SMILES: Nc1nc(N)c2nc(CSc3ccc(C(=O)NC(CCC(=O)O)C(=O)O)cc3)cnc2n1 (centres undefined)
- T/C (T/C endpoint: mean survival time, dose: 48.0 mg/kg/injection, schedule: Q01DX009 (ip), vehicle: distilled water + Tween-80): 130 % of control

SMILES: CN(C)c1nc(-c2ccncc2)nc(N(C)C)n1
- survivor count [7]: 0 of 3
- survivor count (T/C endpoint: mean survival time, dose: 400.0 mg/kg/injection, schedule: Q04DX002 (ip), vehicle: saline with Tween-80): 0 of 3

SMILES: CO[C@H]1C[C@H](O[C@H]2CC[C@]3(C=O)[C@H]4CC[C@]5(C)[C@@H](C6=CC(=O)OC6)CC[C@]5(O)[C@@H]4CC[C@]3(O)C2)O[C@H](C)[C@H]1O[C@@H]1O[C@H](CO)[C@@H](O)[C@H](O)[C@H]1O
- survivor count (T/C endpoint: mean survival time, dose: 2.0 mg/kg/injection, schedule: Q01DX009 (ip), vehicle: saline): 2 of 6

SMILES: O=C(O)C(O)C(O)C1[O][Sb][O]C1C(=O)O (centres undefined)
- survivor count [8]: 0 of 6

SMILES: Cc1nc2c(ncn2C2OC3COP(=O)(O)OC3C2O)c2nccn12 (centres undefined)
- survivor count (T/C endpoint: mean survival time, dose: 200.0 mg/kg/injection, schedule: Q01DX005 (ip), vehicle: water): 0 of 5

SMILES: COc1c(CNC(=O)CCl)cc2[nH]c(C)cc2c1CNC(=O)CCl
- survivor count (T/C endpoint: mean survival time, dose: 400.0 mg/kg/injection, schedule: Q01DX009 (ip), vehicle: Klucel (hydroxypropylcellulose) (HPC)): 1 of 6

SMILES: CCC[P+](c1ccccc1)(c1ccccc1)c1ccccc1
- survivor count (T/C endpoint: mean survival time, dose: 25.0 mg/kg/injection, schedule: Q01DX009 (ip), vehicle: saline with Tween-80): 0 of 6
- survivor count [4]: 0 of 6
- survivor count [5]: 0 of 6
- survivor count (T/C endpoint: mean survival time, dose: 150.0 mg/kg/injection, schedule: Q01DX001 (ip), vehicle: other): 2 of 6
- survivor count [2]: 0 of 6

SMILES: CC(C)CC(CC(C)C)C(=O)C1C2CCC(O2)C1C(=O)C(CC(C)C)CC(C)C (centres undefined)
- survivor count [9]: 3 of 3
- survivor count [10]: 3 of 3

SMILES: CCCCCCC(O)C[N+](=O)[O-] (centres undefined)
- survivor count [5]: 3 of 6

SMILES: Cc1csc(C)[n+]1C
- survivor count [11]: 3 of 6
- survivor count [3]: 0 of 6

SMILES: COc1cc([NH-])c([NH-])cc1OC.[Cl][Pt+2][Cl]
- survivor count (T/C endpoint: mean survival time, dose: 320.0 mg/kg/injection, schedule: Q01DX009 (ip), vehicle: saline with Tween-80): 2 of 8

SMILES: O/N=C1/C2CCC(C2)C1C(O)(C(F)(F)F)C(F)(F)F (centres undefined)
- survivor count [3]: 0 of 6

SMILES: O=[N+]([O-])c1c(O)c(CNCCCO)cc(CNCCCO)c1O
- survivor count [8]: 4 of 6
- survivor count (T/C endpoint: median survival time, dose: 200.0 mg/kg/injection, schedule: Q01DX009 (ip), vehicle: saline): 0 of 6

SMILES: CCS/C(SC)=C(/c1ccccc1)[P+](c1ccccc1)(c1ccccc1)c1ccccc1
- survivor count (T/C endpoint: median survival time, dose: 6.0 mg/kg/injection, schedule: Q01DX009 (ip), vehicle: Klucel (hydroxypropylcellulose) (HPC)): 3 of 6
- survivor count (T/C endpoint: median survival time, dose: 12.0 mg/kg/injection, schedule: Q01DX009 (ip), vehicle: Klucel (hydroxypropylcellulose) (HPC)): 0 of 6
- survivor count (T/C endpoint: median survival time, dose: 24.0 mg/kg/injection, schedule: Q01DX009 (ip), vehicle: Klucel (hydroxypropylcellulose) (HPC)): 0 of 6

SMILES: [O-][n+]1cc(N=Nc2ccc(Cl)cc2)nn1-c1ccc(Cl)cc1
- survivor count (T/C endpoint: mean survival time, dose: 100.0 mg/kg/injection, schedule: Q01DX001 (ip), vehicle: saline): 6 of 6
- survivor count [1]: 6 of 6

SMILES: O=C(Nc1ccc(NC(=O)c2ccccc2)c2ccccc12)c1ccccc1
- survivor count [6]: 6 of 6

SMILES: CC(C)=CCCC(C)CCN(C)C (centres undefined)
- survivor count (T/C endpoint: mean survival time, dose: 200.0 mg/kg/injection, schedule: Q04DX003 (ip), vehicle: saline): 1 of 6
- survivor count (T/C endpoint: mean survival time, dose: 400.0 mg/kg/injection, schedule: Q04DX003 (ip), vehicle: saline): 0 of 6

SMILES: CN(C)N=Nc1cn[nH]c1C(N)=O
- T/C [12]: 141 % of control
- T/C [13]: 131 % of control

SMILES: COc1ccc(C(=O)C(Br)Br)cc1OC
- survivor count [9]: 0 of 3
- survivor count [10]: 0 of 3
- survivor count [7]: 0 of 3

SMILES: C[N+](C)(CCCCCC[N+](C)(C)Cc1ccccc1)Cc1ccccc1
- survivor count (T/C endpoint: median survival time, dose: 25.0 mg/kg/injection, schedule: Q04DX003 (ip), vehicle: saline with Tween-80): 0 of 3
- survivor count (T/C endpoint: median survival time, dose: 50.0 mg/kg/injection, schedule: Q04DX003 (ip), vehicle: saline with Tween-80): 0 of 3
- survivor count (T/C endpoint: median survival time, dose: 100.0 mg/kg/injection, schedule: Q04DX003 (ip), vehicle: saline with Tween-80): 0 of 3
- survivor count (T/C endpoint: median survival time, dose: 200.0 mg/kg/injection, schedule: Q04DX003 (ip), vehicle: saline with Tween-80): 0 of 3

SMILES: CC(=O)OCc1cc(=O)n(C)c2c3c4c(cc12)c(C)cc(=O)n4CO3
- T/C [12]: 133 and 134 % of control
- survivor count (T/C endpoint: mean survival time, dose: 100.0 mg/kg/injection, schedule: Q01DX009 (ip), vehicle: Klucel (hydroxypropylcellulose) (HPC)): 1 of 6 and 4 of 6
- survivor count [13]: 0 of 6 and 2 of 6

SMILES: N#CCSc1nc(N)nc2nc[nH]c12
- survivor count (T/C endpoint: mean survival time, dose: 400.0 mg/kg/injection, schedule: Q01DX009 (ip), vehicle: saline with Tween-80): 1 of 6

SMILES: CCN(CC)CCCC(C)Nc1ncnc2oc(C)c(C)c12 (centres undefined)
- survivor count (T/C endpoint: mean survival time, dose: 100.0 mg/kg/injection, schedule: Q04DX003 (ip), vehicle: saline with Tween-80): 2 of 6
- survivor count [6]: 1 of 6
- survivor count [14]: 0 of 6

SMILES: O=[N+]([O-])c1ccc(SSc2ccc([N+](=O)[O-])cn2)nc1
- survivor count (T/C endpoint: mean survival time, dose: 200.0 mg/kg/injection, schedule: Q01DX009 (ip), vehicle: saline with Tween-80): 2 of 6
- survivor count [14]: 1 of 6

SMILES: NC(=O)c1cc([N+](=O)[O-])ccc1NN=NCCF
- survivor count (T/C endpoint: mean survival time, dose: 100.0 mg/kg/injection, schedule: Q01DX001 (ip), vehicle: Klucel (hydroxypropylcellulose) (HPC)): 0 of 3
- survivor count (T/C endpoint: mean survival time, dose: 200.0 mg/kg/injection, schedule: Q01DX001 (ip), vehicle: Klucel (hydroxypropylcellulose) (HPC)): 0 of 3

SMILES: C=C1C(=O)OC2CC3(C)OC3CC/C(C)=C/C(OC(C)=O)C12 (centres undefined)
- survivor count [14]: 0 of 6

SMILES: O=C1Nc2ccc3c4c(ccc1c24)CC3
- survivor count [11]: 6 of 6
